Reference: PubChem BioAssay AID1224828 (NIAID, 2016)
Purpose: 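Knock-downs that increase or decrease LPS-induced p65 nuclear translocation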 (primary screen). Cells: mouse RAW264.7 G9 macrophage reporter cells (GFP-p65, Tnf promoter-mCherry). Knock-down reagent: siRNA pool against mouse genes, 100 nM. Time to read-out: 2 days siRNA transfection, then 40 min LPS before fixation. Conditions: LPS (Salmonella minnesota R595) at 10 ng/ml. Measurement: 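Imaged p65 nuclear translocation ratio, normalised to the plate median, converted to robust z-scores and averaged across two replicates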. Direction: p65 translocation robust z-score: higher = more nuclear NF-kappaB p65 after LPS than the plate median; nuclear/cytoplasmic p65 ratio: higher = more nuclear NF-kappaB p65. Hit rule: 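Called active when z exceeds 3.3 or falls under -1.56 (median of Tlr4 controls), giving activity score of at least 50; no calls for control wells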. Calls: active = hit (p65 shift raised or lowered); inactive = no clear change.
Shown is a random part of about 17,000 deposited reagents. In the full data, 762 (4.5%) got an active call. 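Active calls include both raised and lowered p65 entry, mostly lowered; wells with fewer than 50 cells lack a z-score.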 The raw values are shown without normalisation. A number with no mark means an inactive call.

The opening 7 entries, ahead of the listing:
| target gene | p65 translocation robust z-score | nuclear/cytoplasmic p65 ratio, rep 1 | nuclear/cytoplasmic p65 ratio, rep 2 | low cell count flag |
| --- | --- | --- | --- | --- |
| Sarm1 | 1.12 | 1.56 | 1.64 | enough cells to score |
| Bsn | -1.93 (active) | 1.17 | 1.24 | enough cells to score |
| Ncln | – | 1.1 | 1.01 | fewer than 50 cells per well; well left out of scoring |
| Pigv | 0.98 | 1.64 | 1.76 | enough cells to score |
| Rest | 0.46 | 1.65 | 1.52 | enough cells to score |
| Slc45a3 | 3.32 (active) | 1.78 | 1.27 | enough cells to score |
| Chchd7 | -1.07 | 1.22 | 1.27 | enough cells to score |

Main list, from the first entry:
| target gene | p65 translocation robust z-score | nuclear/cytoplasmic p65 ratio, rep 1 | nuclear/cytoplasmic p65 ratio, rep 2 | low cell count flag |
| --- | --- | --- | --- | --- |
| Sarm1 | 1.12 | 1.56 | 1.64 | enough cells to score |
| Bsn | -1.93 (active) | 1.17 | 1.24 | enough cells to score |
| Ncln | – | 1.1 | 1.01 | fewer than 50 cells per well; well left out of scoring |
| Pigv | 0.98 | 1.64 | 1.76 | enough cells to score |
| Rest | 0.46 | 1.65 | 1.52 | enough cells to score |
| Slc45a3 | 3.32 (active) | 1.78 | 1.27 | enough cells to score |
| Chchd7 | -1.07 | 1.22 | 1.27 | enough cells to score |
| Vmn1r215 | – | 1.45 | 1.2 | fewer than 50 cells per well; well left out of scoring |
| Or10v5 | 0.97 | 1.78 | 1.53 | enough cells to score |
| Paip2 | 0.64 | 1.51 | 1.33 | enough cells to score |
| Gadd45b | -0.09 | 1.27 | 1.5 | enough cells to score |
| Mir9-2hg | -0.55 | 1.42 | 1.38 | enough cells to score |
| Xtbd1 | -1.48 | 1.25 | 1.66 | enough cells to score |
| Slc2a9 | – | 1.26 | 1.52 | fewer than 50 cells per well; well left out of scoring |
| Dnase1 | -0.05 | 1.42 | 1.41 | enough cells to score |
| Pdgfrl | -0.84 | 1.37 | 1.27 | enough cells to score |
| Zbtb39 | 1.06 | 1.61 | 1.65 | enough cells to score |
| Ano6 | -0.24 | 1.13 | 1.17 | enough cells to score |
| Nfs1 | -0.95 | 1.6 | 1.48 | enough cells to score |
| Nexn | -0.18 | 1.76 | 1.5 | enough cells to score |
| Parp11 | -0.54 | 1.25 | 1.44 | enough cells to score |
| Hao1 | 1.72 | 1.98 | 1.72 | enough cells to score |
| Prg2 | 1.14 | 1.53 | 1.34 | enough cells to score |
| Actn3 | -0.52 | 1.6 | 1.49 | enough cells to score |
| Klrb1c | 1.64 | 1.74 | 1.69 | enough cells to score |
| Psmd3 | – | 1.41 | 1.21 | fewer than 50 cells per well; well left out of scoring |
| Gas5 | -0.37 | 1.52 | 1.37 | enough cells to score |
| Rin1 | 0 | 1.47 | 1.56 | enough cells to score |
| Zfp474 | -0.04 | 1.25 | 1.3 | enough cells to score |
| Tlr6 | -1.55 | 1.48 | 1.19 | enough cells to score |
| Or6p1 | 0.98 | 1.75 | 1.46 | enough cells to score |
| Dkk2 | -0.4 | 1.37 | 1.35 | enough cells to score |
| Ceacam2 | 2.09 | 1.75 | 2.29 | enough cells to score |
| Cpne3 | 0.31 | 1.64 | 1.31 | enough cells to score |
| Ip6k1 | -1.52 | 1.57 | 1.18 | enough cells to score |
| Nlrx1 | 0.29 | 1.66 | 1.85 | enough cells to score |
| Defb40 | -0.5 | 1.5 | 1.47 | enough cells to score |
| Aktip | -0.67 | 1.39 | 1.24 | enough cells to score |
| Dach2 | – | 1.49 | 1.24 | fewer than 50 cells per well; well left out of scoring |
| Gjd3 | -1.52 | 1.35 | 1.38 | enough cells to score |
| Gcg | -1.48 | 1.31 | 1.35 | enough cells to score |
| Ppil2 | -0.33 | 1.36 | 1.16 | enough cells to score |
| Cst6 | -1.01 | 1.43 | 1.61 | enough cells to score |
| Ddr2 | -0.16 | 1.56 | 1.44 | enough cells to score |
| Cysrt1 | – | 1.4 | 1.16 | fewer than 50 cells per well; well left out of scoring |
| Tex21 | 1.35 | 1.55 | 1.33 | enough cells to score |
| Or51q1 | -0.67 | 1.36 | 1.18 | enough cells to score |
| Zfp445 | -1.67 (active) | 1.23 | 1.4 | enough cells to score |
| Ar | -0.2 | 1.6 | 1.58 | enough cells to score |
| Pdcd1lg2 | – | 1.59 | 1.16 | fewer than 50 cells per well; well left out of scoring |
| Ggact | -0.31 | 1.64 | 1.67 | enough cells to score |
| Ccser2 | – | 1.4 | 1.33 | fewer than 50 cells per well; well left out of scoring |
| Sirt1 | -0.98 | 1.4 | 1.43 | enough cells to score |
| Sfrp5 | -0.36 | 1.48 | 1.52 | enough cells to score |
| Ebf2 | – | 1.4 | 1.26 | fewer than 50 cells per well; well left out of scoring |
| Or8s8 | -0.75 | 1.46 | 1.33 | enough cells to score |
| Git2 | 0.11 | 1.5 | 1.62 | enough cells to score |
| B4galt2 | 1.63 | 1.88 | 2.06 | enough cells to score |
| Rpl36 | -0.34 | 1.38 | 1.18 | enough cells to score |
